Test [1] concerns the target Flag-tagged CELF6 (human) (UniProt Q96J87). Nature of the test: co-IP; cells lysed 48 h after transfection; lysate (2 mg/mL protein; 50 mM Tris-HCl pH 7.5, 0.1% SDS, 1% Triton X-100, 150 mM NaCl) incubated with anti-Flag magnetic beads (30 μl) overnight at 4 °C, washed three times with lysis buffer, immunoblotting.
Test [2] concerns the target endogenous CELF6 (human (endogenous in the cells used; all cell lines of the paper are human)) (UniProt Q96J87). The experiment in a line: co-IP; both proteins endogenous; cells lysed 48 h after passage, CELF6 antibody added, Protein A immunoaffinity gel beads added 4 h later, immunoblotting.

Sequences of proteins named here, by UniProt entry; tags and fusion partners are left off. A change or cut given only in a name is not applied to a line headed by its entry. A line that says so, or that is headed by a name, gives the form on record, which may keep a tag or linker.
UniProt Q96J87: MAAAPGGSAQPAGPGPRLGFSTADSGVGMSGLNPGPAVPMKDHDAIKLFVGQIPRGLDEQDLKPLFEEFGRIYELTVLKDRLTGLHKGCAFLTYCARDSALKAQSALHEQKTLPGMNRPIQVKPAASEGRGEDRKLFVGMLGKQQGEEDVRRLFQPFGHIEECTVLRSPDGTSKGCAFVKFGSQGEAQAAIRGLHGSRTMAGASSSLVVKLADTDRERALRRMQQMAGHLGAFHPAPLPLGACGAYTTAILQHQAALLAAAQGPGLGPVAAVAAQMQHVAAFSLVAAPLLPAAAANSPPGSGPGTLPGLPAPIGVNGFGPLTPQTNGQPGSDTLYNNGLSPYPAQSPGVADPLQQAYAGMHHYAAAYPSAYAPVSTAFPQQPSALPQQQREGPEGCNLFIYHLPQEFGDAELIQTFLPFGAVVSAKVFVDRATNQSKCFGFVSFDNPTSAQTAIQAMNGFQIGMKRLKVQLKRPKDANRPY
Flag-tagged CELF6 (Q96J87, form named): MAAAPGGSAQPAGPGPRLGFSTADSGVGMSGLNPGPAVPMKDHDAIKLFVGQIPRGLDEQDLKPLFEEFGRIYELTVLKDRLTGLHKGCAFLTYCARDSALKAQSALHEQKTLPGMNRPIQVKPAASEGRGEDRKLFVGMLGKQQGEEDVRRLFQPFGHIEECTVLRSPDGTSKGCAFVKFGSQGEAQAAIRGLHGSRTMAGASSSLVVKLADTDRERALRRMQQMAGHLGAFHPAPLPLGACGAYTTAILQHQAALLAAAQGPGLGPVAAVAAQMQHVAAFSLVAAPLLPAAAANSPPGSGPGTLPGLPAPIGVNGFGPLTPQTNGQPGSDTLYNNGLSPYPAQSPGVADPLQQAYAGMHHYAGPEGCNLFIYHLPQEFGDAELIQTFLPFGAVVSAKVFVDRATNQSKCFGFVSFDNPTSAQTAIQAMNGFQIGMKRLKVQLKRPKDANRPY
UniProt Q00987: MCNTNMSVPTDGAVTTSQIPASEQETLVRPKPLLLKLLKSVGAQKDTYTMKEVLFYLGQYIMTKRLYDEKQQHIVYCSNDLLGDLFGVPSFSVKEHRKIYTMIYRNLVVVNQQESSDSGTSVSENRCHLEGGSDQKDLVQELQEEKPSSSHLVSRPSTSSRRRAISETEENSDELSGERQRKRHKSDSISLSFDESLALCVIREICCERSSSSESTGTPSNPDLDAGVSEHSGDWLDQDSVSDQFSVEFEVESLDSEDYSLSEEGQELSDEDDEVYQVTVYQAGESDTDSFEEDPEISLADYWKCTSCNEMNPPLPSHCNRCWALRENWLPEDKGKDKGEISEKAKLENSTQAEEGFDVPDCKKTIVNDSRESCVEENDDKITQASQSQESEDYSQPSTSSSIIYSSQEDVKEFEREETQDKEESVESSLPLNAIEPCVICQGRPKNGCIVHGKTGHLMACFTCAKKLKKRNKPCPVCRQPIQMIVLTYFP

These are yes or no findings as the source states them, for the method shown. In cells and extracts the contact can be indirect. Some entries that bind do so weakly or less than the wild type.

As to “endogenous MDM2 (from UniProt Q00987 1-491)”, the binding entry in test [1] and in test [2] was “binds” in each case.

Source of the values: publication PMC12540984.
